Common to all, as to test: log2 fold change, soluble protein after heating vs DMSO (PISA); higher = thermal stabilisation; K562 lysate, 10 uM; active = over 0.2 and 3.5 SD of the protein, either way, in both replicates (recomputed)
Compound in experiment [1]: NCC(=O)Nc1ccc(-n2nc(C(F)(F)F)cc2-c2ccc3c(ccc4ccccc43)c2)cc1
In short, it runs like this:
(§1)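 Pellets of K562 cells were dounce-homogenised in PBS pH 7.4 with 1 mM MgCl2, and the crude extract was held at 1 mg/mL protein for a 30 min treatment with 10 μM compound. Aliquots were heated for 3 min over 48°C-58°C and pooled before NP-40 was added to 0.5% at 4°C. The supernatant from 21,000xg for 90 min was quantified by TMTpro 16plex LC-MS/MS with channel sums equalised. Values are reported from duplicates as log-two fold change in thermal stability relative to solvent controls.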

By UniProt entry, the sequences of proteins in these tests, tags left out. Where a name states a change or a piece, a line headed by the entry shows the natural chain unless it says otherwise.
UniProt Q92692, whole entry, looked up: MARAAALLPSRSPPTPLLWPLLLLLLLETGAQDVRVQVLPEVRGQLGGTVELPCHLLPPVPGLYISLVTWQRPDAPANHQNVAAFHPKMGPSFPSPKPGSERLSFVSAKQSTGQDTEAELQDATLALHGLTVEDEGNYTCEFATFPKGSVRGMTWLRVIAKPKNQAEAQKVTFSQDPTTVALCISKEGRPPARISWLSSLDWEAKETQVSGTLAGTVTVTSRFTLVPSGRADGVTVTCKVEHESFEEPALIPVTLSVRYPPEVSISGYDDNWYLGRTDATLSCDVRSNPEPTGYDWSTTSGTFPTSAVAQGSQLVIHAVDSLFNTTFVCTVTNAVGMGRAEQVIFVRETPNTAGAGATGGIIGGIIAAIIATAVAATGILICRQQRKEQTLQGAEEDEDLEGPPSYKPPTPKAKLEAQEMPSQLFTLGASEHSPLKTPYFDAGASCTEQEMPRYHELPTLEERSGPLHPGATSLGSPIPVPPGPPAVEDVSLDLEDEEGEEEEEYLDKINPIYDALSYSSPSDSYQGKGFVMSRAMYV
UniProt Q86SG6: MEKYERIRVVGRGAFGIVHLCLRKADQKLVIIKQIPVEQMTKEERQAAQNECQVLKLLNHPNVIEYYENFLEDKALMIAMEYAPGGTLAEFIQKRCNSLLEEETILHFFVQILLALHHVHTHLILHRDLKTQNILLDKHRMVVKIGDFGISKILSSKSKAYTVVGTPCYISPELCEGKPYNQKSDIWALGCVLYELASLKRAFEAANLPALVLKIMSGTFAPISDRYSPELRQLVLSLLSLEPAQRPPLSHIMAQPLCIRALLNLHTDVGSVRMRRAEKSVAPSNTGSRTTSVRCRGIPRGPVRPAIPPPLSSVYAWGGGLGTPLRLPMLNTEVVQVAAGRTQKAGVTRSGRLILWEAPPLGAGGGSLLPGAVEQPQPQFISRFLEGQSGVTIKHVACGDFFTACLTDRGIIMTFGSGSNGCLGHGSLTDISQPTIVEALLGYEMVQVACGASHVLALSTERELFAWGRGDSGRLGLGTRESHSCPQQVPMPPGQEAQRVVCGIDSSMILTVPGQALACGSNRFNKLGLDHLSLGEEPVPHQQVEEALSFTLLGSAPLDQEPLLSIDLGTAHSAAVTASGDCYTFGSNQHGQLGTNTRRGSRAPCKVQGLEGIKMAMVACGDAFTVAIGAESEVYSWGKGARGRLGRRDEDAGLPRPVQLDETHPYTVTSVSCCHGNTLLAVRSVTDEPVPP
UniProt Q9P032: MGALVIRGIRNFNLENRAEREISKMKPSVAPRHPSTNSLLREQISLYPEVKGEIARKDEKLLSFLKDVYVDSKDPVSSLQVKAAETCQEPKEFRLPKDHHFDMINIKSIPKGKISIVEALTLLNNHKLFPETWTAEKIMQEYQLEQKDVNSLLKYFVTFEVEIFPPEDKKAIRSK
UniProt Q96IV0: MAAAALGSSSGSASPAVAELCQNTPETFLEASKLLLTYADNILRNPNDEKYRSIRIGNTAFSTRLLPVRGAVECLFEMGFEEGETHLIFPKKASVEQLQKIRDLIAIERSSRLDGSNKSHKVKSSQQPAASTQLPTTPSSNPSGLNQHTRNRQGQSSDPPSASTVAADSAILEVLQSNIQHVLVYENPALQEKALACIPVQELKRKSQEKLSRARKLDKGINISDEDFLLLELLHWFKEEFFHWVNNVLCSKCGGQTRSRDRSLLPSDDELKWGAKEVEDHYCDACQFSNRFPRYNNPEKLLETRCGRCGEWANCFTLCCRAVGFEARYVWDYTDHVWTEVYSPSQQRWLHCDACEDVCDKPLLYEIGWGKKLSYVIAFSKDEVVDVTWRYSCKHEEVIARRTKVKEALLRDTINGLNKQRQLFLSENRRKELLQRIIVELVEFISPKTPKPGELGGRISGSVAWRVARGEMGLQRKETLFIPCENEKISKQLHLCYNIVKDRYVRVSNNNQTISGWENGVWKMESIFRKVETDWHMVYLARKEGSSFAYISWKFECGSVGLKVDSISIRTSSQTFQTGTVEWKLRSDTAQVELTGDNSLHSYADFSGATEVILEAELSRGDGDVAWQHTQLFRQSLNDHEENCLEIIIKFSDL
UniProt Q7Z628: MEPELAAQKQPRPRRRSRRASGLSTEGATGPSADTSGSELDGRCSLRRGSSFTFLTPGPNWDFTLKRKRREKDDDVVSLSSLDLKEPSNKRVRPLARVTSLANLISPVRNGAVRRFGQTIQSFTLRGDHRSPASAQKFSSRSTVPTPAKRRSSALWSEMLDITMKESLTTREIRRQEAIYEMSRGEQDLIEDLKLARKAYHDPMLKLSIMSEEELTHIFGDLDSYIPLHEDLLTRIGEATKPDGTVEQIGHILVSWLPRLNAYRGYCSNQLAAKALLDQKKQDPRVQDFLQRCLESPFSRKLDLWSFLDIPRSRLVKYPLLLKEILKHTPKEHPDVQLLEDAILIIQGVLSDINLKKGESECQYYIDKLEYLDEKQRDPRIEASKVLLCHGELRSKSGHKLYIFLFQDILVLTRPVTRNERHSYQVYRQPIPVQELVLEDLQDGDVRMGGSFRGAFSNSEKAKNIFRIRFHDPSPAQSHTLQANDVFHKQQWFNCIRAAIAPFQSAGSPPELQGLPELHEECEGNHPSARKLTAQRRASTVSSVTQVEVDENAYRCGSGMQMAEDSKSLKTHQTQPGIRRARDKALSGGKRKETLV
UniProt Q16795, whole entry, looked up: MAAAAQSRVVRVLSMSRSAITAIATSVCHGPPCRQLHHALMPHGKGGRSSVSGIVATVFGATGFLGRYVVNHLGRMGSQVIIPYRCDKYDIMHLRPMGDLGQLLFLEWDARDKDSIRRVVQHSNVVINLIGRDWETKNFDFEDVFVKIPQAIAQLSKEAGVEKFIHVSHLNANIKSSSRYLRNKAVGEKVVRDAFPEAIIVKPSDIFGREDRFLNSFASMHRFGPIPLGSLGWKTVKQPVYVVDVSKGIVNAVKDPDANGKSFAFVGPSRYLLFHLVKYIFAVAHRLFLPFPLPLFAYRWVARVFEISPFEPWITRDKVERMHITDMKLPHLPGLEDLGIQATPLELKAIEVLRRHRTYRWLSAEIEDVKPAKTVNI
UniProt O75251, whole entry, looked up: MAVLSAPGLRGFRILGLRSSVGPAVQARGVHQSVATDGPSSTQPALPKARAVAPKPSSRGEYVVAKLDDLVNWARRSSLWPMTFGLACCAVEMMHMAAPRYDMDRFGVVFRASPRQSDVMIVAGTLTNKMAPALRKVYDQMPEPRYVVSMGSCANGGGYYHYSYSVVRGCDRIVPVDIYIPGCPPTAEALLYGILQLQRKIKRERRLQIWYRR
UniProt Q8TD19: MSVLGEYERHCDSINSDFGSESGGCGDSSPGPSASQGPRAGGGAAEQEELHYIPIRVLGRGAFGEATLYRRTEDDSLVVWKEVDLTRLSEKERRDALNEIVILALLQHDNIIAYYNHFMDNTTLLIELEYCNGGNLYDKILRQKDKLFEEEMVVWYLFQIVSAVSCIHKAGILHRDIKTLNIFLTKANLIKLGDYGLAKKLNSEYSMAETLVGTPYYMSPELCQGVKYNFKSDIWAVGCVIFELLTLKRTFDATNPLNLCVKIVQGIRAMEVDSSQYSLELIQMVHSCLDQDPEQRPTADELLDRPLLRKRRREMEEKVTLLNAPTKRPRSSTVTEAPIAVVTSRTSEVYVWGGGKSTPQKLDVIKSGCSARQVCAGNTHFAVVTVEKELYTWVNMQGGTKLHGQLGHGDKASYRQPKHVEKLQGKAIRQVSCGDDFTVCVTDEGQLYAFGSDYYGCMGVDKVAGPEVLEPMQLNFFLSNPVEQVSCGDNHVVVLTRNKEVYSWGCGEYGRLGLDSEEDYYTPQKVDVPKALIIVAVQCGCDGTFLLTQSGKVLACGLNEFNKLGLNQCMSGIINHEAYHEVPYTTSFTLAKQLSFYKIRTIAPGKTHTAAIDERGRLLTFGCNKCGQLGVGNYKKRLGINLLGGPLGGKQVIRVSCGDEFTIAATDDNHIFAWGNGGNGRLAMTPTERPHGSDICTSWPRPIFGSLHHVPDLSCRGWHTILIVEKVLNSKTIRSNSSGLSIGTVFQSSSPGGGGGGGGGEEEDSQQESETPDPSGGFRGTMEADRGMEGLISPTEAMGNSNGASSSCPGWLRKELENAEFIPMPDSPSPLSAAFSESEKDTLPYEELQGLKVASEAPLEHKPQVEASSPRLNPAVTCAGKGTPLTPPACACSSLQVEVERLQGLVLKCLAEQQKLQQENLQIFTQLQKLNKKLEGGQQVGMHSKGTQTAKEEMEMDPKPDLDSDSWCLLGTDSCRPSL
UniProt O14777: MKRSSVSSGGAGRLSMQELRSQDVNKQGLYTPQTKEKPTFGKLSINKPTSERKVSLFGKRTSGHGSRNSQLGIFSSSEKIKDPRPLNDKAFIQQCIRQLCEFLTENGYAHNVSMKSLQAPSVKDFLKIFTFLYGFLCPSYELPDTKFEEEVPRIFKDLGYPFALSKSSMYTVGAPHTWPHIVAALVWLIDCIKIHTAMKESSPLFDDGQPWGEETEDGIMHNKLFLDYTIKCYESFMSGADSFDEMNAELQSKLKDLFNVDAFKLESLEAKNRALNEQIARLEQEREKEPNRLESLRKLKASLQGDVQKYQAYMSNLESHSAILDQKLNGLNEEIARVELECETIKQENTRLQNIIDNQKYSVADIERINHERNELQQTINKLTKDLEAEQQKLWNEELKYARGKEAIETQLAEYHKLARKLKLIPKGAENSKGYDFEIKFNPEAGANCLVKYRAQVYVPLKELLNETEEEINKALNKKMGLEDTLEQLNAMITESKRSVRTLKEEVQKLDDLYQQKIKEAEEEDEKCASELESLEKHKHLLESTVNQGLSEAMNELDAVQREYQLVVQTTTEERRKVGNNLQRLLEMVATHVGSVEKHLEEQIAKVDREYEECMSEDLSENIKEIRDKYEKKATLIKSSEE
UniProt Q9Y6M9, whole entry, looked up: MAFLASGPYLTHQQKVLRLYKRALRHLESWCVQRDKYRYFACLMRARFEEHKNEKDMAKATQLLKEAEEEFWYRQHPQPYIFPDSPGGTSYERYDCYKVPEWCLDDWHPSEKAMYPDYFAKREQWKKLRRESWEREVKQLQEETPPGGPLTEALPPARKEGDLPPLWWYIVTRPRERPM

Compound in the next experiment: O=C(CCCCCCC(=O)Nc1ccccc1)NO [vorinostat]
In short, it runs like this:
as §1

Compound in the next experiment: O=C(O)c1ccc2c(c1)nc(Nc1cccc(Cl)c1)c1ccncc12 [silmitasertib]
In short, it runs like this: as §1

Compound in experiment [2]: O=C1NC(=O)C(c2cnc3ccccn23)=C1c1cn2c3c(cc(F)cc13)CN(C(=O)N1CCCCC1)CC2
In short, it runs like this:
as §1

Compound in another experiment: c1cn2cc(-c3ccc4cn[nH]c4c3)nc(Nc3ccc(N4CCOCC4)cc3)c2n1 [entospletinib]
The procedure, abridged:
as §1

Among the data in the supplement of paper PMC10849652 are log2 fold change values, retold here.

The other results are listed elsewhere or left out.

In the case of NECTIN2 isoform 2 (UniProt Q92692), the log2 fold change was inactive: 0.028 in experiment [1]; inactive: 0.327 with vorinostat; inactive: -0.037 in the experiment with silmitasertib; inactive: -0.135 in experiment [2]; inactive: -0.104 with entospletinib.

For the target NEK8 (UniProt Q86SG6), the results for the log2 fold change (in experiment [1]; with vorinostat; with silmitasertib) were inactive: 0.093, inactive: -0.307 and inactive: 0.008, respectively.

With NDUFAF4 (UniProt Q9P032), the log2 fold change in experiment [1] is inactive: 0.03; in the experiment with vorinostat it was inactive: 0.045; with silmitasertib it was inactive: 0.016; in experiment [2], inactive: 0.015; with entospletinib, inactive: -0.013.

Consider NGLY1 (UniProt Q96IV0), for which the log2 fold change was inactive: -0.014 in experiment [1]; active: -0.29 with vorinostat; inactive: 0.041 in the experiment with silmitasertib; inactive: 0.018 in experiment [2]; inactive: 0.034 with entospletinib.

As to NET1 (UniProt Q7Z628), the log2 fold change in experiment [1] was inactive: -0.021; with vorinostat, inactive: 0; in the experiment with silmitasertib, inactive: -0.003; in experiment [2] it was inactive: -0.26.

As to NDUFA9 (UniProt Q16795), the log2 fold change in experiment [1] is inactive: -0.087; with vorinostat, inactive: 0.045; with silmitasertib, inactive: 0.045; in experiment [2] it was inactive: 0.043; with entospletinib, inactive: 0.042.

Regarding NDUFS7 (UniProt O75251), the log2 fold change in experiment [1] was inactive: -0.015; with vorinostat, inactive: 0.099; with silmitasertib, inactive: 0.007; in experiment [2] it was inactive: -0.037; in the experiment with entospletinib, inactive: 0.005.

In the case of NEK9 (UniProt Q8TD19), the log2 fold change in experiment [1] was inactive: -0.03; with vorinostat it was active: -0.45; with silmitasertib, inactive: 0.052; in experiment [2], inactive: -0.013; with entospletinib, inactive: 0.013.

Turning to NDC80 (UniProt O14777), the log2 fold change in experiment [1] is inactive: -0.047; in the experiment with vorinostat it was inactive: -0.176; with silmitasertib, inactive: 0.034; in experiment [2], inactive: 0.012; in the experiment with entospletinib it was inactive: 0.014.

Turning to NDUFB9 (UniProt Q9Y6M9), the log2 fold change in experiment [1] is inactive: -0.018; with vorinostat, inactive: 0.123; in the experiment with silmitasertib, inactive: -0.004; in experiment [2], inactive: 0.006; with entospletinib, inactive: -0.026.
